# Tested on: Swiss Webster fracture-bearing mice (fracture callus)
# Assay: micro CT of the fracture callus in the femur fracture model
# Type: in vivo
# Conditions: 4 weeks; 1 and 10 nmol/day
substance,measurement,value
"TP508 D10: SEQ ID NO: 12, Thrombin fragment TP508 with 10 aspartate acids: DDDDDDDDDDAGYKPDEGKRGDACEGDSGGPFV (TP 508_D10)",BV/TV,dose dependent manner

# From patent US20210213135A1 (Purdue Research Foundation, priority 2018, published 2021)
